Data: US9888688B2, “Tetrazolinone compounds and applications thereof” (Sumitomo Chemical Company, Limited, priority 2013, dated 2018)
Read-outs that look alike come from different tables or passages of the source. Some entries share one result that the patent states for a list of compounds.

Experiments:
[1] = test system: wheat rust fungus (Puccinia recondita); assay: Wheat rust control test, foliar spray on wheat (Test Examples 3, 13, 14); format: in vivo; conditions: wheat SHIROGANE, inoculated 5 days after spraying
[2] = test system: rice blast fungus (Magnaporthe grisea); format: in vivo; conditions: rice NIHONBARE, 6 days

SMILES	area of lesion spots relative to that on an untreated plant ([1]; 200 ppm foliar spray) [%]	lesion area with respect to the lesion area on the non-treated plant ([2]; 200 ppm foliar spray) [%]	lesion area with respect to the lesion area on the non-treated plant ([2]; 500 ppm foliar spray) [%]	area of lesion spots relative to that on an untreated plant ([1]; 500 ppm foliar spray) [%]	lesion area with respect to the lesion area on the non-treated plant ([2]; 50 ppm foliar spray) [%]
COc1cccc(-n2nnn(C)c2=O)c1COc1ccc(-c2ncccc2Cl)cc1C [Present Compound 3]	≤ 30	≤ 30	–	–	–
COc1cccc(-n2nnn(C)c2=O)c1COc1ccc(-c2ccccn2)cc1C [Present Compound 4]	≤ 30	≤ 30	≤ 30	–	–
Cc1cc(-c2ccccn2)ccc1OCc1c(C2CC2)cccc1-n1nnn(C)c1=O [Present Compound 6]	≤ 30	≤ 30	–	≤ 30	–
Cc1cc(-c2ncccc2C)ccc1OCc1c(C2CC2)cccc1-n1nnn(C)c1=O [Present Compound 9]	≤ 30	≤ 30	–	≤ 30	–
Cc1cc(-c2ncccc2C)ccc1OCc1ccccc1-n1nnn(C)c1=O [Present Compound 10]	≤ 30	≤ 30	–	≤ 30	–
Cc1cc(-c2cc(Cl)ccn2)ccc1OCc1c(C2CC2)cccc1-n1nnn(C)c1=O [Present Compound 15]	≤ 30	≤ 30	–	–	–
Cc1cc(-c2ncccc2F)ccc1OCc1c(C)cccc1-n1nnn(C)c1=O [Present Compound 17]	≤ 30	≤ 30	≤ 30	–	–
Cc1cc(-c2ncccc2F)ccc1OCc1ccccc1-n1nnn(C)c1=O [Present Compound 18]	≤ 30	≤ 30	–	–	–
Cc1cc(-c2ncccc2F)ccc1OCc1c(C2CC2)cccc1-n1nnn(C)c1=O [Present Compound 19]	≤ 30	–	–	–	≤ 30
Cc1ccnc(-c2ccc(OCc3c(C4CC4)cccc3-n3nnn(C)c3=O)c(C)c2)c1 [Present Compound 22]	≤ 30	≤ 30	≤ 30	–	–
Cc1ccnc(-c2ccc(OCc3c(Cl)cccc3-n3nnn(C)c3=O)c(C)c2)c1 [Present Compound 24]	≤ 30	≤ 30	≤ 30	–	–
COc1cccc(-n2nnn(C)c2=O)c1COc1ccc(-c2cc(C)ccn2)cc1C [Present Compound 25]	≤ 30	≤ 30	–	–	–
Cc1ccc(-c2ccc(OCc3c(C)cccc3-n3nnn(C)c3=O)c(C)c2)nc1 [Present Compound 31]	≤ 30	≤ 30	≤ 30	–	–
CCc1cccc(-n2nnn(C)c2=O)c1COc1ccc(-c2ccc(C)cn2)cc1C [Present Compound 33]	≤ 30	≤ 30	–	–	–
COc1cccc(-n2nnn(C)c2=O)c1COc1ccc(-c2cccc(C(F)(F)F)n2)cc1C [Present Compound 34]	≤ 30	≤ 30	–	–	–
Cc1cc(-c2cccc(C(F)(F)F)n2)ccc1OCc1c(C)cccc1-n1nnn(C)c1=O [Present Compound 35]	≤ 30	≤ 30	–	–	–
COc1cccc(-n2nnn(C)c2=O)c1COc1ccc(-c2cccc(Cl)n2)cc1C [Present Compound 38]	≤ 30	≤ 30	≤ 30	–	–
Cc1cc(-c2cccc(Cl)n2)ccc1OCc1c(C2CC2)cccc1-n1nnn(C)c1=O [Present Compound 40]	≤ 30	≤ 30	–	≤ 30	–
CCc1cccc(-c2ccc(OCc3c(C)cccc3-n3nnn(C)c3=O)c(C)c2)n1 [Present Compound 42]	≤ 30	≤ 30	≤ 30	–	–
CCc1cccc(-c2ccc(OCc3c(CC)cccc3-n3nnn(C)c3=O)c(C)c2)n1 [Present Compound 43]	≤ 30	≤ 30	≤ 30	–	–
CCc1cccc(-c2ccc(OCc3ccccc3-n3nnn(C)c3=O)c(C)c2)n1 [Present Compound 44]	≤ 30	≤ 30	≤ 30	–	–

SMILES	area of lesion spots relative to that on an untreated plant ([1]; 200 ppm foliar spray) [%]	lesion area with respect to the lesion area on the non-treated plant ([2]; 200 ppm foliar spray) [%]	lesion area with respect to the lesion area on the non-treated plant ([2]; 500 ppm foliar spray) [%]	area of lesion spots relative to that on an untreated plant ([1]; 500 ppm foliar spray) [%]	lesion area with respect to the lesion area on the non-treated plant ([2]; 50 ppm foliar spray) [%]
CCc1cccc(-c2ccc(OCc3c(OC)cccc3-n3nnn(C)c3=O)c(C)c2)n1 [Present Compound 45]	≤ 30	≤ 30	≤ 30	–	–
CCc1cccc(-c2ccc(OCc3c(Cl)cccc3-n3nnn(C)c3=O)c(C)c2)n1 [Present Compound 46]	≤ 30	≤ 30	≤ 30	–	–
CCc1cccc(-c2ccc(OCc3c(C4CC4)cccc3-n3nnn(C)c3=O)c(C)c2)n1 [Present Compound 47]	≤ 30	≤ 30	≤ 30	≤ 30	–
Cc1cccc(-c2ccc(OCc3c(C)cccc3-n3nnn(C)c3=O)c(C)c2)n1 [Present Compound 48]	≤ 30	–	≤ 30	–	–
COc1cccc(-n2nnn(C)c2=O)c1COc1ccc(-c2cccc(C)n2)cc1C [Present Compound 49]	≤ 30	–	≤ 30	–	–
CCc1cccc(-n2nnn(C)c2=O)c1COc1ccc(-c2cccc(C)n2)cc1C [Present Compound 51]	≤ 30	≤ 30	≤ 30	–	–
Cc1cccc(-c2ccc(OCc3c(C4CC4)cccc3-n3nnn(C)c3=O)c(C)c2)n1 [Present Compound 52]	≤ 30	≤ 30	≤ 30	≤ 30	–
CCOc1cccc(-n2nnn(C)c2=O)c1COc1ccc(-c2cccc(C)n2)cc1C [Present Compound 53]	≤ 30	≤ 30	≤ 30	–	–
Cc1cccc(-c2ccc(OCc3c(Cl)cccc3-n3nnn(C)c3=O)c(C)c2)n1 [Present Compound 54]	≤ 30	≤ 30	–	–	–
Cc1cccc(-c2ccc(OCc3c(C)cccc3-n3nnn(C)c3=O)cc2C)n1 [Present Compound 56]	≤ 30	≤ 30	–	–	–
Cc1cccc(-c2ccc(OCc3c(C)cccc3-n3nnn(C)c3=O)c(Cl)c2)n1 [Present Compound 57]	≤ 30	–	≤ 30	–	≤ 30
Cc1cccc(-c2ccc(OCc3c(C)cccc3-n3nnn(C)c3=O)c(C(F)(F)F)c2)n1 [Present Compound 59]	≤ 30	≤ 30	≤ 30	–	–
Cc1cccc(-c2ccc(OCc3c(C)cccc3-n3nnn(C)c3=O)c(Br)c2)n1 [Present Compound 61]	≤ 30	≤ 30	–	–	–
Cc1cc(-c2cccc(C#N)n2)c(C)cc1OCc1c(C)cccc1-n1nnn(C)c1=O [Present Compound 168]	≤ 30	–	–	–	–
Cc1cc(-c2cccc(Cl)n2)c(C)cc1OCc1ccccc1-n1nnn(C)c1=O [Present Compound 175]	≤ 30	–	–	–	–
COc1ccnc(-c2cc(C)c(OCc3c(C)cccc3-n3nnn(C)c3=O)cc2C)c1 [Present Compound 188]	≤ 30	–	–	–	–
Cc1cc(-c2ccc(F)cn2)c(F)cc1OCc1c(C)cccc1-n1nnn(C)c1=O [Present Compound 195]	≤ 30	–	–	–	–
Cc1cc(-c2cncc(Br)c2)c(C)cc1OCc1c(C)cccc1-n1nnn(C)c1=O [Present Compound 200]	≤ 30	–	–	≤ 30	–
Cc1cc(C)nc(-c2cc(C)c(OCc3c(C)cccc3-n3nnn(C)c3=O)cc2C)c1 [Present Compound 205]	≤ 30	–	–	–	–
Cc1cc(-c2ncc(C3CC3)cn2)ccc1OCc1c(C)cccc1-n1nnn(C)c1=O [Present Compound 247]	≤ 30	–	–	–	–
Cc1cc(-c2cncc(C3CC3)c2)c(C)cc1OCc1c(C)cccc1-n1nnn(C)c1=O [Present Compound 248]	≤ 30	–	–	–	–
